In article doi:10.1101/2021.05.05.442573:
Substitutions are numbered along the chain they refer to. In names and notes the source's numbering stands. Results are given in words; binding and its absence hold for the method and conditions named. In cells and extracts the contact can be indirect. Some binding calls cover weakened binding; strength is not graded here. Values belong to the binder of their own block, whether it stands above or below them.

Columns and labels:
Assay in all cases: cross-linking
[1] = target: ParB(A102C, H133C)-HT (B. subtilis) (UniProt P26497)
[2] = target: ParB(R105C, H133C, S278C)-HT in combination with E78Q (B. subtilis) (UniProt P26497)
[3] = target: ParB(T22C, E78Q)-HT (B. subtilis) (UniProt P26497)
[4] = target: ParB(R105C, H133C)-HT (B. subtilis) (UniProt P26497)
[5] = target: ParB(R105C, H133C, S278C)-HT in combination with E111Q (B. subtilis) (UniProt P26497)
[6] = target: ParB(R105C, H133C, E111Q)-HT (B. subtilis) (UniProt P26497)
[7] = target: ParB(R105C, L134C)-HT (B. subtilis) (UniProt P26497)
[8] = target: ParB(R105C, H133C, E78Q)-HT (B. subtilis) (UniProt P26497)
[9] = target: ParB(T22C, E111Q)-HT (B. subtilis) (UniProt P26497)
[10] = target: ParB(T22C)-HT (B. subtilis) (UniProt P26497)
[11] = target: ParB(A102C, L134C)-HT (B. subtilis) (UniProt P26497)

B1: ParB(A102C, H133C)-HT (protein, UniProt P26497 1-282)
chain: MAKGLGKGINALFNQVDLSEETVEEIKIADLRPNPYQPRKHFDDEALAELKESVLQHGILQPLIVRKSLKGYDIVAGERRFRAAKLAGLDTVPAIVRELSECLMREIALLENLQREDLSPLEEAQAYDSLLKCLDLTQEQLAKRLGKSRPHIANHLRLLTLPENIQQLIAEGTLSMGHGRTLLGLKNKNKLEPLVQKVIAEQLNVRQLEQLIQQLNQNVPRETKKKEPVKDAVLKERESYLQNYFGTTVNIKRQKKKGKIEIEFFSNEDLDRILELLSERES
binding [1]: binds

B2: ParB(R105C, H133C, S278C)-HT in combination with E78Q (protein, UniProt P26497 1-282)
chain: B1 chain with E78Q, C102A, R105C, S278C
binding [2]: binds

B4: ParB(R105C, H133C)-HT (protein, UniProt P26497 1-282)
chain: B1 chain with C102A, R105C
binding [4]: binds weakly

B6: ParB(R105C, H133C, E111Q)-HT (protein, UniProt P26497 1-282)
chain: B1 chain with C102A, R105C, E111Q
binding [6]: binds

B8: ParB(R105C, H133C, E78Q)-HT (protein, UniProt P26497 1-282)
chain: B1 chain with E78Q, C102A, R105C
binding [8]: binds

B11: ParB(A102C, L134C)-HT (protein, UniProt P26497 1-282)
chain: B1 chain with C133H, L134C
binding [11]: binds

Other lines, results leading:

binding [3]: binds
B3: ParB(T22C, E78Q)-HT (protein, UniProt P26497 1-282)
chain: B1 chain with T22C, E78Q, C102A, C133H

binding [5]: binds
B5: ParB(R105C, H133C, S278C)-HT in combination with E111Q (protein, UniProt P26497 1-282)
chain: B1 chain with C102A, R105C, E111Q, S278C

binding [7]: binds weakly
B7: ParB(R105C, L134C)-HT (protein, UniProt P26497 1-282)
chain: B1 chain with C102A, R105C, C133H, L134C

binding [9]: binds
B9: ParB(T22C, E111Q)-HT (protein, UniProt P26497 1-282)
chain: B1 chain with T22C, C102A, E111Q, C133H

binding [10]: binds weakly
B10: ParB(T22C)-HT (protein, UniProt P26497 1-282)
chain: B1 chain with T22C, C102A, C133H
